Data reported in the supplement of paper PMC4683952.
Some of the results follow. Cut-off read from the data, not from the text of the source: active = 2 or more and inactive = the rest. Repeats in this data set agree poorly, so a single value says little.

System: Lgr5 (MarsCy1-Lgr5-EGFP, U2OS)
Assay: cell-surface Lgr5 expression (SCi1 fluorescence, background-subtracted) relative to WT DMSO (fold of DMSO control); higher = more Lgr5 at the plasma membrane
Details: U2OS MarsCy1-Lgr5-EGFP stable; treatment time: overnight; library: ActiProbe-5K (TimTec); 25 µM

cell-surface Lgr5 expression, active:
N#Cc1c(-c2ccccc2)cc(-c2ccc(F)cc2)nc1F 2.24, Sc1nnc(Cc2cccc3ccccc23)o1 2.2, N#CCSc1nc(-c2ccccc2)cc(-c2ccccc2)c1C#N 2.21

cell-surface Lgr5 expression, inactive:
Cn1cc(S(=O)(=O)Nc2cnn(COc3cccc(Cl)c3)c2)cn1 1.16, Cc1c(Br)c(C(F)(F)F)nn1CCC(=O)NC1=NCCS1 1.25, CN(C)Cc1c(C#N)c2ccccc2n1C 1.37, COC(=O)c1cc(C(C)=O)c(C)o1 1.28, CS(=O)(=O)O.c1ccc2c(c1)CCc1c-2n[nH]c1-c1ccncc1 0.918, COC(=O)C1=CN(Cc2cccs2)C=C(C(=O)OC)C1c1cccs1 0.859, CC1CCN(c2nc(=O)[nH]c(=O)[nH]2)CC1 1.17, O=C1c2ccccc2C2=NNS(=O)(=O)c3cccc1c32 1.06, Cn1c(=S)n(CN2CCC3(CC2)OCCO3)c2ccccc21 1.12, CN(C)S(=O)(=O)N(C)CC12CC3CC(CC(C3)C1)C2 1.46, N/N=C1/C2CN3CCN(C2)CC1(Cc1ccccc1)C3 1.31, CC1CCC2(CC1)N[C@H](C(=O)O)CS2 (stereo not given in full) 1.18, CC1(C)CC(=O)C2=C(C1)OC(=O)CC2c1cccs1 (stereo not given) 1.03, Cc1ccc2c(c1)c1c3n2CCN(C2CCO2)C3CCC1 (stereo not given) 1.37, CCOC(=O)N1CCN(C(=O)C(C)(C)C)CC1 1.2, Cc1n[nH]c(=O)nc1NCCN(C)C 0.911, CC(O)Cc1nnc(S)n1C (stereo not given) 1.45, CC(=O)c1sc(NC(=O)C2CC3CCC2C3)nc1C (stereo not given) 1.17, Cn1c(Br)nc([N+](=O)[O-])c1Br 0.392, CC(=O)OC1COC(C#N)C(OC(C)=O)C1OC(C)=O (stereo not given) 1.05, Cc1cc(N2C(=O)CCC2=O)no1 0.839, COC(=O)c1c(N2C(=O)C=CC2=O)sc(C)c1C 1.6, C/C(=N\NC(N)=S)c1ccco1 1.16, CC1CCN(S(=O)(=O)N(C)C)CC1 1.13, CCc1ccc(/C=C(/C#N)C(N)=S)s1 0.911, O=Cc1ccc(S(=O)(=O)[O-])cc1S(=O)(=O)[O-] 1.22, COc1ccc(OC)c(Nc2ccc([N+](=O)[O-])cc2[N+](=O)[O-])c1 1.9, O=S(=O)(O/N=C1\CCCc2sc(Cl)cc21)c1ccccc1 1.34, O=S(=O)(Nc1nccs1)c1ccc2ccccc2c1 1.16, O=[N+]([O-])c1ccc(NC2CC(O)C(CO)O2)cc1 (stereo not given) 1.21, C#CCOc1ccc(/C=C2/NC(=O)NC2=O)cc1Br 1.72, OCC1(CO)COC2(CCCCC2)N1 1.21, CCOc1cc2c(cc1OCC)C(C)=NCC2 1.11, O=C(O)c1nsnc1C(O)C(O)C(=O)O (stereo not given) 1.33, C1CCC(=N/Nc2nc(c(CCCC)c(n2)C)O)/CC1 1.26, Clc1ccc(Nc2nc(C3CC3)cs2)cc1 0.942, O=C1c2cccnc2C(=O)N1c1ccc(Cl)cn1 1.2, CCCSc1nc2c(c(C(F)(F)F)c1C#N)CCCCCC2 1.15, O=S(=O)(Nc1ncccn1)c1ccc(F)cc1 0.931, CC1(C)OC[C@@H]([C@@H]2OC(=O)C(O)=C2O)O1 1.17, CC(C)(C)Sc1ccc(SC(C)(C)C)s1 1.51, C1CCC(C(CC2CCCCN2)C2CCCCC2)CC1.O=C(O)/C=C\C(=O)O (stereo not given) 0.34, O=S(=O)(Nc1cc(Cl)ccc1Cl)c1ccc(Cl)cc1 1.03, CS(=O)(=O)NC(c1ccccc1)c1ccccc1 1.06, O=C(CCC(=O)NCCC1=CCCCC1)NCCC1=CCCCC1 1.08, CC(C)(C)C1CCc2c(sc3c2C(=O)NC(c2cccs2)N3)C1 (stereo not given) 0.841, CCS(=O)(=O)Nc1ccc(Cl)cn1 1.08, Sc1nc2ccccc2n1C12CC3CC(CC(C3)C1)C2 1.11, c1(cc(cc(o1)=O)C)/C=C(\Cl)Cl 1.39, COc1ccc(/C=N/NC(=O)c2nnn(-c3nonc3N)c2CN2CCCCCC2)cc1CSc1nc2ccccc2o1 1.18, OC1=NC(=N\N=C/c2ccccc2)/S/C1=C/c1ccccc1 1.2, C[N+](C)(CC(=O)c1ccc(Br)cc1)CC12CC3CC(CC(C3)C1)C2 1.03, Cc1ccc(O)c(C2=NOC(O)(C(F)(F)F)C2)c1 (stereo not given) 1.22, N#Cc1c(SCC(=O)C23CC4CC(CC(C4)C2)C3)sc2c(O)cc(=O)[nH]c12 1.28, CN(c1c[nH]c(=O)[nH]c1=O)C1CCCCC1 0.985, CCC(C)NS(=O)(=O)c1c(C)cc(C)cc1C (stereo not given) 1.02, NC(=O)c1c(N)sc2c1CCCC2 1.25, COc1cc(-c2nc3sc(-c4cc(OC)c(O)c(OC)c4)nc3s2)cc(OC)c1O 1.72, Nc1cc([N+](=O)[O-])cc2c1C=Cc1ccccc1O2 1.23, Cc1sc(NC(=O)C2CC2)c(C(N)=O)c1C 1.12, CCOC(=O)c1nc(Cn2cc(Br)cn2)no1 1.15, CCN(CC)C(=O)COCC1CCCN2CCCCC12 (stereo not given) 0.953, [O-]c1n[n+](-c2ccccc2)no1 1.3, O=c1[nH]c2ccccc2c2nnnn12 0.913, N#Cc1c(/N=C\c2cc(Cl)cc(Cl)c2O)sc2c1CCC2 0.983, O=[N+]([O-])c1c(Sc2nnnn2C2CCCCC2)ncnc1Sc1nnnn1C1CCCCC1 1.32, Cn1ccnc1/C=N\Nc1cc(Cl)cc(Cl)c1 1.26, O=c1[nH]nc2[nH]c3ccccc3n2c1=O 1.13, CCSc1nc(C2CC2)cc(C(F)(F)F)c1C#N 1.2, CCc1nc2sc(C)c(C)c2c(=O)n1N 1.03, N#CCN(CC#N)C(=O)c1ccco1 1.03, O=c1oc(-c2cc3ccccc3s2)ns1 1.16, c1(/n(c2cc(Cl)ccc2s1)C)=C(\C#N)C#N 1.1, CC1(C)CC(=O)c2sc(NC(=O)C3CC(=O)N(C4CCCCC4)C3)nc2C1 (stereo not given) 1.24, c1coc(CSCc2ccco2)c1 1.21, O=C(N/N=C\c1ccoc1)C1CCCCC1 1.32, Nc1nc(C(F)(F)F)nn1CC(=O)O 1.2, COc1ccc(OC)c(S(=O)(=O)Nc2cc3oc4ccccc4c3cc2OC)c1 1.19, N#Cc1c(NC(=O)C(F)(F)F)sc2c1CCCC2 0.821, O=[N+]([O-])c1ccc(S(=O)Nc2ccc(O)cc2)cc1 (stereo not given) 1.06, Cc1[nH]nc2c1C1(CCOC1C)C(C#N)=C(N)O2 (stereo not given) 1.11, C/C=C1\CC(C)(CC)C(C#N)(C#N)C(N)=C1C#N (stereo not given) 0.936, O=C1NC2(CCCCC2)NC2=C1CCCC2 1.12, Cc1cc(C)c(-c2cc(C(F)(F)F)[nH]n2)c(=O)[nH]1 1.04, O=c1[nH]cnc2sc3c(c12)CCCC3 0.933, O=S(=O)(c1ccccc1)c1cc(O)ccc1O 1.33, Cn1c(=O)c2cc(S(=O)(=O)NC3CC3)ccc2n(C)c1=O 1.01, CCn1cc(Cl)c(C(=O)NC2=NCCS2)n1 1.32, NC1CCSc2ccccc21 (stereo not given) 1.19, CC(C)(C1=CC(=O)c2ccccc2C1=O)C1OCC2(CO1)CC1C=CC2C1 (stereo not given) 0.811, CC(=C/c1ccco1)/C=N/NC(=O)c1ccoc1C 1.12, [O-]/[N+](=N/OCc1ccccc1)c1cccc(Br)c1 0.624, CC(=O)[C@H]1C[C@@H](CC#N)C1(C)C 0.882, O=C1NC(=O)/C(=C/c2ccc(F)cc2)S1 1.08, OC(CCl)CSc1nc2ccccc2s1 (stereo not given) 1.03, CN(C)CCSc1nc(-c2ccccc2)nc2c1CCC2 0.892, c1ccc2c(c1)[nH]c1nc3nnnn3nc12 1.12, O=C(O)CCC1=NNC(=O)CC1 1.28, c1ccc2c(c1)-c1ccccc1C2N1CCNCC1 0.957, c1ccc(CN2CCN(Cc3ccccc3)C2c2c[nH]c3ccccc23)cc1 1.17, Fc1ccc(Cn2nc(Cl)nc2Cl)cc1 1.39, COc1nsc2ccc(N)cc12 0.882, Cn1c(COc2ccccc2)nc2ccccc21 0.972, Cn1c(SCc2csc(C3CCCCC3)n2)nc2sc3c(c2c1=O)CCCC3 1.09, N/C(=N\O)C(c1ccccc1)c1ccccc1 1.35, O=C1Nc2ccc(F)cc2/C1=C1/S/C(=N/c2ccccc2)N(c2ccccc2)C1=O 1.4, O=C(NC1CCCCCC1)c1ccc(Br)o1 1.24
